Data taken from PubChem BioAssay AID504749, deposited by NCATS (2011).

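A panel of P. falciparum strains inside erythrocytes is exposed to compounds for three days, then a DNA-binding dye reports the amount of parasite DNA. Each compound was titrated across a series from about 0.000037 to 29 µM. The number is the fitted AC50, the concentration giving a half-maximal change in signal; a lower value means higher potency, whether the curve shows a decrease or an increase. Calls follow the curve class and fit quality: every row here is inconclusive, covering signal-raising curves and weak, poorly fitted, partial or highest-dose-only inhibition curves.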

Values are in µM. All entries here are filed as inconclusive. Only part of the assay is shown, chiefly results filed as inconclusive. A potency from a partial, single-point or poor curve is only a rough figure. Some entries filed as inconclusive have a full curve.

SMILES: O=C1O[C@H](CN2CCOCC2)CN1/N=C\c1ccc([N+](=O)[O-])o1
setting: CP185
Potency (µM): 3.981
curve: inhibitor, single point

SMILES: O=C1O[C@H](CN2CCOCC2)CN1/N=C\c1ccc([N+](=O)[O-])o1
setting: PC49
Potency (µM): 4.467
curve: inhibitor, partial curve

SMILES: O=C1O[C@H](CN2CCOCC2)CN1/N=C\c1ccc([N+](=O)[O-])o1
setting: N140
Potency (µM): 3.162
curve: inhibitor, partial curve, poor fit

SMILES: O=C1O[C@H](CN2CCOCC2)CN1/N=C\c1ccc([N+](=O)[O-])o1
setting: 3D7
Potency (µM): 1.778
curve: inhibitor, partial curve

SMILES: O=C1O[C@H](CN2CCOCC2)CN1/N=C\c1ccc([N+](=O)[O-])o1
setting: CP265
Potency (µM): 10
curve: inhibitor, single point

SMILES: O=C1O[C@H](CN2CCOCC2)CN1/N=C\c1ccc([N+](=O)[O-])o1
setting: CP260
Potency (µM): 3.548
curve: inhibitor, single point

SMILES: O=C1O[C@H](CN2CCOCC2)CN1/N=C\c1ccc([N+](=O)[O-])o1
setting: CP286
Potency (µM): 3.981
curve: inhibitor, partial curve

SMILES: O=C1O[C@H](CN2CCOCC2)CN1/N=C\c1ccc([N+](=O)[O-])o1
setting: PAD
Potency (µM): 3.548
curve: inhibitor, single point

SMILES: O=C1O[C@H](CN2CCOCC2)CN1/N=C\c1ccc([N+](=O)[O-])o1
setting: TAB113
Potency (µM): 5.012
curve: inhibitor, single point

SMILES: O=C1O[C@H](CN2CCOCC2)CN1/N=C\c1ccc([N+](=O)[O-])o1
setting: P93_24
Potency (µM): 3.548
curve: inhibitor, single point

SMILES: CC(C)(C)NC(=O)[C@@H]1CC[C@@H]2[C@@H]3CC[C@@H]4NC(=O)C=C[C@@]4(C)[C@H]3CC[C@]21C
setting: 7G8
Potency (µM): 6.31
curve: inhibitor, single point

SMILES: CNCCCC1c2ccccc2C=Cc2ccccc21
setting: CP203
Potency (µM): 2.558
curve: inhibitor, partial curve

SMILES: CNCCCC1c2ccccc2C=Cc2ccccc21
setting: Dd2
Potency (µM): 1.778
curve: inhibitor, partial curve

SMILES: CNCCCC1c2ccccc2C=Cc2ccccc21
setting: GB4
Potency (µM): 2.869
curve: inhibitor, partial curve

SMILES: CNCCCC1c2ccccc2C=Cc2ccccc21
setting: CP215
Potency (µM): 2.279
curve: inhibitor, partial curve

SMILES: CNCCCC1c2ccccc2C=Cc2ccccc21
setting: DIV14
Potency (µM): 1.018
curve: inhibitor, partial curve, poor fit

SMILES: CNCCCC1c2ccccc2C=Cc2ccccc21
setting: AA1029
Potency (µM): 1
curve: inhibitor, partial curve

SMILES: CNCCCC1c2ccccc2C=Cc2ccccc21
setting: PC26
Potency (µM): 3.612
curve: inhibitor, partial curve

SMILES: CNCCCC1c2ccccc2C=Cc2ccccc21
setting: CP335
Potency (µM): 0.9074
curve: inhibitor, full curve

SMILES: CNCCCC1c2ccccc2C=Cc2ccccc21
setting: CP217
Potency (µM): 3.548
curve: inhibitor, partial curve

SMILES: CNCCCC1c2ccccc2C=Cc2ccccc21
setting: CP191
Potency (µM): 10
curve: inhibitor, single point

SMILES: CNCCCC1c2ccccc2C=Cc2ccccc21
setting: CP269
Potency (µM): 2.279
curve: inhibitor, partial curve, poor fit

SMILES: CNCCCC1c2ccccc2C=Cc2ccccc21
setting: ATS95
Potency (µM): 3.548
curve: inhibitor, single point

SMILES: CNCCCC1c2ccccc2C=Cc2ccccc21
setting: CP256
Potency (µM): 3.548
curve: inhibitor, partial curve

SMILES: CNCCCC1c2ccccc2C=Cc2ccccc21
setting: CP238
Potency (µM): 3.162
curve: inhibitor, partial curve

3 of the entries, repeated:

SMILES,setting,Potency (µM),curve
CNCCCC1c2ccccc2C=Cc2ccccc21,PC26,3.612,"inhibitor, partial curve"
CNCCCC1c2ccccc2C=Cc2ccccc21,CP335,0.9074,"inhibitor, full curve"
O=C1O[C@H](CN2CCOCC2)CN1/N=C\c1ccc([N+](=O)[O-])o1,CP260,3.548,"inhibitor, single point"